No constants are given. Whether binding was seen depends on the method and setting. Binding seen in cells or lysates may run through a third protein. Some results given as binding are weak or reduced against the parent protein; the word gives no strength. Sequences can lack the tags named with a protein.
What was measured:
[1] = molecular target: GST fusion of the DM fragment of Drosophila Dvl (Drosophila) (UniProt P51140); assay: GST pull-down, electrophoresis and autoradiography
[2] = molecular target: GST fusion of the DM fragment of Drosophila Dvl (Drosophila) (UniProt P51140); assay: GST pull-down with fragments of Drosophila Dvl, Tris-Glycine gel
[3] = molecular target: GST fusion of the DM fragment of Drosophila Dvl (Drosophila) (UniProt P51140); assay: GST pull-down with fragments of Dvl

Chains of the proteins cited; added tags and fusions are not shown. Residues count along the entry.
UniProt P51140, residues 166-338: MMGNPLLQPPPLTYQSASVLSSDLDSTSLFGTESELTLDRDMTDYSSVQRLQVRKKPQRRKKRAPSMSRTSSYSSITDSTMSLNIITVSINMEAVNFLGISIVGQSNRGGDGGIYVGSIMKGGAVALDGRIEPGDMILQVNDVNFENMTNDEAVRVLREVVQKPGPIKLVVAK

- binding [1]: binds
- binding [2]: binds
- binding [3]: binds
B1: Myc-tagged mNkd protein, in vitro translated (protein, not shown: small tags and cut ends)
chain: MGKLHSKPAAVCKRRESPEGDSFAVSAAWARKGIEEWIGRQRCPGSVSGPRQLRLAGTVGRGTRELVGDTSREALGEEDEDDFPLEVALPPEKIDSLGSGDEKRMERLSEPGQASKKQLKFEELQCDVSVEEDSRQEWTFTLYDFDNNGKVTREDITSLLHTIYEVVDSSVNHSPTSSKTLRVKLTVAPDGSQSKRSVLFNHTDLQSTRPRADTKPAEELRGWEKKQRAPLRFQGDSHLEQPDCYHHCVDENIERRNHYLDLAGIENYTSQFGPGSPSVAQKSELPPRISNPTRSRSHEPEAAHIPHRRPQGVDPGSFHLLDTPFAKASELQQRLRGTQDGSKHFVRSPKAQGKNMGMGHGARGARSKPPLVPTTHTVSPSAHLATSPALLPTLAPLGHKKHKHRAKESQASCRGLQGPLAAGGSTVMGREQVRELPAVVVYESQAGQAVQRHEHHHHHHEHHHHYHHFYQP
modifications: labelled with 35S-methionine

— US20020061552A1
